This is one part of the list.
Compound: CC1Cc2ccccc2N1C(=O)C1CCCN(C1)C(=O)CCl (mixture of isomers) [TRIM25 ligand 11 (diastereomer mixture)]
Test: probe-labelled cysteine peptide fold change vs DMSO (competition) (log2 fold change); higher = less target engagement (more negative = stronger competition)
Settings: THP-1, incubation time: 4 h
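Note: competitive chemoproteomic profiling in live THP-1 cells with an iodoacetamide desthiobiotin (IA-DTB) probe, comparing probe-labelled peptide intensities in compound-treated cells against DMSO-treated controls.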

The chains behind the UniProt entries cited, without tags or fusion partners. Where a name states a change or a piece, a line headed by the entry shows the natural chain unless it says otherwise.
UniProt Q86WR0: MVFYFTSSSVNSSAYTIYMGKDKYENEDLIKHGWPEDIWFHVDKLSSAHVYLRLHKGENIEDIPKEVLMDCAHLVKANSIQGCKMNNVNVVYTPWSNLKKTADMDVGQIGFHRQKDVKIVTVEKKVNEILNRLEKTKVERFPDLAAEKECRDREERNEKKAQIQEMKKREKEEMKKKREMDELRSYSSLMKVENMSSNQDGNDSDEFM
UniProt O75155: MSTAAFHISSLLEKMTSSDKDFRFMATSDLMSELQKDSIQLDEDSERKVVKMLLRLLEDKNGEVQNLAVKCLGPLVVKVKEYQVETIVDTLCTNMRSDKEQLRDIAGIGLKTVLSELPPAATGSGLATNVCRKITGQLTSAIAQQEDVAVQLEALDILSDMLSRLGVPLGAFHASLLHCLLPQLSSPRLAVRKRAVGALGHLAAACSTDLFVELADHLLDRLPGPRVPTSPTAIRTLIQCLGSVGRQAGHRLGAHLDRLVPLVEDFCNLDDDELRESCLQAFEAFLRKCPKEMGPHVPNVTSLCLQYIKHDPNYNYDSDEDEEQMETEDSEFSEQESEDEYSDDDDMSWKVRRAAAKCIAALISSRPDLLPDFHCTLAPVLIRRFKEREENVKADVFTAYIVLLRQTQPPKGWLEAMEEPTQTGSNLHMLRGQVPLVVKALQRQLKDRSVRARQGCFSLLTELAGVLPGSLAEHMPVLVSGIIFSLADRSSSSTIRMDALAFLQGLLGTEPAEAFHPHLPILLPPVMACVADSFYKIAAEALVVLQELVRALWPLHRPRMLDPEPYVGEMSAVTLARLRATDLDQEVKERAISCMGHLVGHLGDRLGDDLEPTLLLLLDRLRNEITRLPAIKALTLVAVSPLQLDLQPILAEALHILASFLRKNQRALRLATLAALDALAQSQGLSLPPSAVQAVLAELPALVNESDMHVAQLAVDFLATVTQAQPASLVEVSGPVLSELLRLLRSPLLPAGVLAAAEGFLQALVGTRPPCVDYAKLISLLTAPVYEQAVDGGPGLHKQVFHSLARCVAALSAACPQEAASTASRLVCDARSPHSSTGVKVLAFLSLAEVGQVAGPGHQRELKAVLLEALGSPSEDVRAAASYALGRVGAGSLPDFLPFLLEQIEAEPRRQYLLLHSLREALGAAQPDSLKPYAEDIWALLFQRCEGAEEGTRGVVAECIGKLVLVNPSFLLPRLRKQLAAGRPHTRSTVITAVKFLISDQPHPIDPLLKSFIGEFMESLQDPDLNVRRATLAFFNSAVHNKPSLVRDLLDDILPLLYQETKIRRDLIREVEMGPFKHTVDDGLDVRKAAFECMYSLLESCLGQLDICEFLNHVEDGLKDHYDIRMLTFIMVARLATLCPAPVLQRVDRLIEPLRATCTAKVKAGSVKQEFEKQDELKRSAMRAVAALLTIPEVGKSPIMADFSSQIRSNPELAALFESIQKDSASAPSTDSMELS
UniProt Q14790: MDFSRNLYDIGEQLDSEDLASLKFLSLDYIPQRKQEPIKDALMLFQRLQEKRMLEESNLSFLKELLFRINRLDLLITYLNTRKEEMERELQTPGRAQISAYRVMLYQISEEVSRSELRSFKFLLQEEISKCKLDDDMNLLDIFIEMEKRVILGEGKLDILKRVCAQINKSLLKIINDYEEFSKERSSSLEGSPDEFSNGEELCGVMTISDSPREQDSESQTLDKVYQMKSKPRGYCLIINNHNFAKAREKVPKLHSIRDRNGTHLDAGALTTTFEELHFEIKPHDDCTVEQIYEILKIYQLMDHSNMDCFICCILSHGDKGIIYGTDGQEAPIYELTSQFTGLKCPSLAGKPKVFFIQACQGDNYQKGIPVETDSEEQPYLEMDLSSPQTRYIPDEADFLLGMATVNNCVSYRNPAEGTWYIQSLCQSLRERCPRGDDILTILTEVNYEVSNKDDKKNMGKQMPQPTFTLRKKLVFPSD
UniProt O14618: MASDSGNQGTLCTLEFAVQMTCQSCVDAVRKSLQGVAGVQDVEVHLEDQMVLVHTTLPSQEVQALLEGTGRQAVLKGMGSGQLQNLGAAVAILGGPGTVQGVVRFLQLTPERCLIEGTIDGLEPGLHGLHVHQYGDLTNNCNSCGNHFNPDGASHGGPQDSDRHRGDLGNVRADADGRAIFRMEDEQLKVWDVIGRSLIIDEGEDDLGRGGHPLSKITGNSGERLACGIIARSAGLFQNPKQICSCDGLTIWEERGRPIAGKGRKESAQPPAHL
UniProt Q01518, whole entry, looked up: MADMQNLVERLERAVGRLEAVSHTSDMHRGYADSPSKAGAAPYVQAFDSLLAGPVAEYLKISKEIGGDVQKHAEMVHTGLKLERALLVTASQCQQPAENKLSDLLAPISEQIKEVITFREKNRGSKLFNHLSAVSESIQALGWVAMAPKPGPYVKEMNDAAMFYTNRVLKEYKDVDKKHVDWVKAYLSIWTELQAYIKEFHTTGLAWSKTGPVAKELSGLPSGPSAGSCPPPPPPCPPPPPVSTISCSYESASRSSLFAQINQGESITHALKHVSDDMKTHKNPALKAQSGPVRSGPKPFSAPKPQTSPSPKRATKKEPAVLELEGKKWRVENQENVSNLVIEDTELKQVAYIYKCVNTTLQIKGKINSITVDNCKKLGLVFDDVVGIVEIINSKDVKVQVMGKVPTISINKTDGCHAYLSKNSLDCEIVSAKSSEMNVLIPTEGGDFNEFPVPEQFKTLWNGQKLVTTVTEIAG
UniProt Q9Y6W3: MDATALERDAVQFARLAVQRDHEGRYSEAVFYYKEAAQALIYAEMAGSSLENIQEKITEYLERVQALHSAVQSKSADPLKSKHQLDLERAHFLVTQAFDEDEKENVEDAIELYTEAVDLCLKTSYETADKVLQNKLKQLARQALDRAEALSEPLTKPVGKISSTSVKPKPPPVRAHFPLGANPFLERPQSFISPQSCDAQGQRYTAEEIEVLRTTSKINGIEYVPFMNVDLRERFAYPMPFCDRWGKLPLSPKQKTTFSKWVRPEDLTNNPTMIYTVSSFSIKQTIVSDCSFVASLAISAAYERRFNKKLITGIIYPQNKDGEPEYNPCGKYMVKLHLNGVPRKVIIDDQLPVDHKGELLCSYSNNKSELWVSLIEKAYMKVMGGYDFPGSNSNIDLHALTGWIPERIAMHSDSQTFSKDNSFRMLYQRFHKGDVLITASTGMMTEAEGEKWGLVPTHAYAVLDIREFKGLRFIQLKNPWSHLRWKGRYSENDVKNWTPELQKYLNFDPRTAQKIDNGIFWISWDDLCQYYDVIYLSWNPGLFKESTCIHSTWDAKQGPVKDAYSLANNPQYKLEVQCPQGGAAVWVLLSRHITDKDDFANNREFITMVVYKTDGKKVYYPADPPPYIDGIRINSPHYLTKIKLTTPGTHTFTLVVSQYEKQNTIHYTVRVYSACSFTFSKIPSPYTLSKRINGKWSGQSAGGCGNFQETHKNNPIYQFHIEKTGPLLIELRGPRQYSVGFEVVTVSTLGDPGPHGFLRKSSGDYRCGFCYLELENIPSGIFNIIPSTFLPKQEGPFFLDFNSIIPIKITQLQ
UniProt P49589: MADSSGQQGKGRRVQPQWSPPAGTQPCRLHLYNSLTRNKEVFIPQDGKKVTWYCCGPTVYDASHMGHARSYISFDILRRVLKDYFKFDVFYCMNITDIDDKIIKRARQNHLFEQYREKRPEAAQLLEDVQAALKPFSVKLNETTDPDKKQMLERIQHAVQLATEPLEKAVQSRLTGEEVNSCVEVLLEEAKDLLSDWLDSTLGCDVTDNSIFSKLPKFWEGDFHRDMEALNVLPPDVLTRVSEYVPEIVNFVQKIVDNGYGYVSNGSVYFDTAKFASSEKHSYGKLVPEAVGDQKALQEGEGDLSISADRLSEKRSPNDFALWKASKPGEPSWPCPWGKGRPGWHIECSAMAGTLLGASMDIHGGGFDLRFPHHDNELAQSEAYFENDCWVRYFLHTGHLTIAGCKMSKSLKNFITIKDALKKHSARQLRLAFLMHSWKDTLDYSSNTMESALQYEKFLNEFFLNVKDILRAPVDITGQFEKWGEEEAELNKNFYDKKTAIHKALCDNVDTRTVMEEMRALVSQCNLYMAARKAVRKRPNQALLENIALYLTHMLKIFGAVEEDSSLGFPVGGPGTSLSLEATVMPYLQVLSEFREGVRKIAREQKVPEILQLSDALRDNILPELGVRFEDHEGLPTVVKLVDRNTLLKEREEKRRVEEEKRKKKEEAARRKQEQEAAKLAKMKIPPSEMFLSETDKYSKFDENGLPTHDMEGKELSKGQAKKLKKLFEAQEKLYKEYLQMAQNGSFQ

## CAPZA1_P52907_124_ESCDSALR (UniProt P52907)
10 µM
  probe-labelled cysteine peptide fold change: -0.0541
50 µM
  probe-labelled cysteine peptide fold change: 0.036

## CCDC25_Q86WR0_71_EVLMDCAHLVK (UniProt Q86WR0)
10 µM
  probe-labelled cysteine peptide fold change: 0.108
50 µM
  probe-labelled cysteine peptide fold change: 0.13

## CAND2_O75155_945_CEGAEEGTR (UniProt O75155)
10 µM
  probe-labelled cysteine peptide fold change: 0.0275
50 µM
  probe-labelled cysteine peptide fold change: 0.0263

## CASP8_Q14790_309+313_IYQLMDHSNMDCFICCILSHGDK (UniProt Q14790)
10 µM
  probe-labelled cysteine peptide fold change: 0.128
50 µM
  probe-labelled cysteine peptide fold change: 0.178

## CCS_O14618_246_QICSCDGLTIWEER (UniProt O14618)
10 µM
  probe-labelled cysteine peptide fold change: -0.0875
50 µM
  probe-labelled cysteine peptide fold change: -0.279

## CAP1_Q01518_416_VPTISINKTDGCHAYLSK (UniProt Q01518)
10 µM
  probe-labelled cysteine peptide fold change: -0.222
50 µM
  probe-labelled cysteine peptide fold change: -0.141

## CAPN7_Q9Y6W3_197_AHFPLGANPFLERPQSFISPQSCDAQGQR (UniProt Q9Y6W3)
10 µM
  probe-labelled cysteine peptide fold change: 0.0446
50 µM
  probe-labelled cysteine peptide fold change: -0.0927

## CARS_P49589_506_ALCDNVDTR (UniProt P49589)
10 µM
  probe-labelled cysteine peptide fold change: 0.0737
50 µM
  probe-labelled cysteine peptide fold change: -0.0385
